Test results as given in patent US4935419A, “Novel 1-piperazinecarboxamide derivatives” (priority 1983, dated 1990).

Key:
[1] = system: male NMRI mice (isolation induced aggressive behaviour); assay: Isolation induced aggressive behaviour test; assay type: in vivo; conditions: Mus musculus, sc, 0.5 h, read-out: ED50, isolation induced aggressive behaviour test
Description: Test 1: Isolation induced aggressive behaviour test
Male mice subjected to prolonged isolation develop aggressive behaviour against each other when paired (Yen, C. Y. et al., Arch. Int. Pharmacodyn. 123, 179, (1959): Valzelli, L., Adv. Pharmacol. 5, 79 (1967)). All clinically used neuroleptics and antidepressants studied in this test inhibit this aggressive behaviour although their activity may differ. […]. The clinical correlation of this test indicates tranquillizing and anxiolytic activities as well as antiaggressive properties as such (Duncan, R. L. et al., J Med. Chem. 13, 1 (1970)).
This type of aggression is interesting because it is known that this kind of emotional behaviour might be located in limbic structures in the brain (MacLean, P.D., Psychosom. Med. 11, 338 (1949)).
Every week male NMRI mice, weighing 20-22 g, were isolated in Makrolon cages for three weeks with diet and water ad libitum. A piece of cardboard was placed between the cages to prevent visual contact.
To test aggressiveness the mice were paired in a neutral area, a beaker (14 cm high and diameter 14 cm). A pair is considered aggressive if both the animals show clear signs of fighting within 5 minutes. This fighting is characterized by biting and vocalization. […] Animals showing no aggression are discarded. […]. The test substance is administered s.c. (0.2-0.4 ml/20 g). […]

[2] = system: female NMRI mice (writhing behaviour); assay: Writhing test (acetic acid); assay type: in vivo; conditions: Mus musculus, sc, read-out: ED50, writhing test
Procedure: The writhing test is a frequently used test of analgetic properties (Witkin, L. B. et al., J. Pharmacol. Exp. Ther. 133, 400 (1961)). If acetic acid (0.5%, 15 ml/kg) is injected intraperitoneally in mice (NMRI) they will without exception develop a writhing behaviour characterized by stretching their hind legs. The drugs to be tested were administered subcutaneously to 6 female mice at each dose 20 minutes before the injection of the acetic acid. After 10 minutes the behaviour of the mice was studied in 5 minutes. The ED50 -value is the dose blocking the writhing behaviour in 50% of the animals during the 5 minutes study period. [drawing 12]

Row | Structure (SMILES) | ED50 [1] | ED50 [2]
1 | CN1C(=O)CN=C(c2ccccc2)c2cc(Cl)ccc21 [Diazepam] | 6.7 mg/kg | –
2 | CN1CC[C@]23c4c5ccc(O)c4O[C@H]2[C@@H](O)C=C[C@H]3[C@H]1C5 [Morphine] | – | 1.6 mg/kg
